Reference: PubChem BioAssay AID493014 (National Center for Advancing Translational Sciences (NCATS), 2011)
This is one part of the list. The main result of the screen is listed elsewhere. These columns were measured beside it and carry no call. The list favours compounds with an active or inconclusive main result. The note in brackets gives the kind of curve behind each potency; many fits are weak.

Assay: qHTS Assay to Find Inhibitors of Chronic Active B-Cell Receptor Signaling
Details: ABC-DLBCL IkBa-CBG/CBR reporter, luminescence ratio (green luciferase fused to IkBa over red control in TMD8 lymphoma cells), 4 h
Outline: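 Concentration-response series (up to 46 uM) were applied to TMD8 dual-reporter cells for 4 h at 37C with doxycycline. Green/red ratio, after filter-overlap correction, defined %Activity; red signal alone was normalised to basal cells and zero luminescence.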

[1] = measured here: CBR red luminescence, cell number
[2] = measured here: IkBa-CBG green luminescence

| Compound | AC50 [1] | AC50 [2] |
| --- | --- | --- |
| Cc1ccc(C(=O)Nc2cccc(N3C(=O)C4CCC(C)CC4C3=O)c2)cc1 (stereo unspecified) | 35.5 µM [falling, single point] | – |
| O=C1OCC/C1=C\c1ccc2c(c1)OCO2 | 7.08 µM [falling, partial curve, poor fit] | – |
| O=C(Nc1cccc(C(=O)N2CCCCC2)c1)c1ccc(Cl)cc1 | 3.98 µM [falling, partial curve] | – |
| O=C(Nc1cccc2[nH]ncc12)c1ccc(F)cc1 | 14.1 µM [falling, partial curve] | – |
| O=C1C(Cc2ccc(Br)cc2)SC(=Nc2ccccc2)N1c1ccccc1 (stereo unspecified) | 2.59 µM [rising, partial curve, poor fit] | – |
| O=C(COc1ccc(S(=O)(=O)Nc2ccccc2)cc1)NCc1cccnc1 | 0.82 µM [rising, full curve, poor fit] | – |
| CCOc1ccc(C2C(C(=O)c3cccs3)=C(O)C(=O)N2Cc2cccnc2)cc1OC (stereo unspecified) | 35.5 µM [rising, single point] | – |
| Cc1ccc(S(=O)(=O)N(CC(=O)NCc2ccco2)c2ccccc2C)cc1 | 12.6 µM [falling, single point] | – |
| CCC(C(=O)O)n1nnc(-c2ccc(-c3ccc(OC)cc3)cc2)n1 (stereo unspecified) | 6.51 µM [rising, single point] | – |
| Cn1cccc1C(=O)Nc1nccs1 | 12.6 µM [falling, partial curve] | – |
| CCOc1ccc(C(C)=O)cc1Cn1nc(C(=O)O)c2ccccc2c1=O | 3.55 µM [rising, full curve, poor fit] | – |
| COC(=O)c1ccc(-c2cc3onc(-c4ccccc4)c3c(=O)n2C)cc1 | 2.91 µM [rising, full curve, poor fit] | – |
| COc1ccc(C=C(C#N)C#N)c(CSc2ccccn2)c1 | 2.51 µM [rising, partial curve] | – |
| COc1ccc(Cl)cc1NC(=O)CN(C)C(=O)C12CC3CC(CC(Cl)(C3)C1)C2 | 35.5 µM [falling, single point] | – |
| O=C(/C=C/c1ccc(-c2ccccc2[N+](=O)[O-])o1)c1ccc(Br)cc1 | 29.1 µM [falling, single point] | – |
| COc1cc(C(=O)NC2CC(C)(C)NC(C)(C)C2)cc(OC)c1OC | 35.5 µM [rising, partial curve, poor fit] | – |
| O=C(CNC(=O)c1ccc(-c2ccccc2)cc1)OCc1c(F)cccc1Cl | 6.51 µM [rising, partial curve] | – |
| CC(C)c1cc(N2CCN(C(=O)c3ccco3)CC2)n2c(nc3ccccc32)c1C#N | 29.1 µM [rising, single point] | – |
| COc1ccccc1NS(=O)(=O)c1ccc(S(=O)(=O)N2CCOCC2)cc1 | 5.01 µM [rising, single point] | – |
| NCC1CC2c3ccccc3C1c1ccccc12 (stereo unspecified) | 22.4 µM [falling, single point] | – |
| CC(/C=C/c1ccco1)=N/NC(=O)Cc1cccs1 | 6.31 µM [rising, single point] | – |
| COc1ccc(N2CCN(c3nc4c(c(=O)[nH]c(=O)n4C)n3Cc3cccc(C)c3)CC2)cc1 | 6.51 µM [rising, single point] | – |

| Compound | AC50 [1] | AC50 [2] |
| --- | --- | --- |
| Cc1ccc(N(C(=O)Cc2cccs2)C2C=CS(=O)(=O)C2)cc1Cl (stereo unspecified) | 11.2 µM [falling, partial curve] | – |
| CC(C)CN(C(=O)CCNC(=O)c1ccc(Cl)cc1)C1CCS(=O)(=O)C1 (stereo unspecified) | 20.6 µM [rising, partial curve, poor fit] | – |
| CCOc1cc(/C=C\c2[nH]c(=O)[nH]c(=O)c2[N+](=O)[O-])ccc1OC(C)CC (stereo unspecified) | 0.366 µM [rising, full curve, poor fit] | – |
| CCOC(=O)c1cnn(-c2ccccn2)c1N | 22.4 µM [falling, single point] | – |
| CC(NC(=O)c1ccc([N+](=O)[O-])o1)C12CC3CC(CC(C3)C1)C2 (stereo unspecified) | 31.6 µM [falling, single point] | – |
| Cc1noc(C)c1CSc1nc2ccccc2c(=O)n1-c1ccc(Cl)cc1 | 7.31 µM [falling, partial curve] | – |
| COc1cc2cc(C[C@H](C)O)oc(=O)c2cc1OC | 18.4 µM [rising, single point] | – |
| COc1ccc(Cc2nc(C(=O)Nc3ccc(F)cc3)cs2)cc1 | 3.66 µM [falling, partial curve, poor fit] | – |
| CCOC(=O)c1cc(-c2ccc(/C=C3/C(=O)N(c4ccc(C(=O)O)cc4)N=C3C)o2)ccc1Cl | 8.91 µM [falling, partial curve] | – |
| COc1ccccc1C(NC(C)=O)c1cc(Cl)c2cccnc2c1O (stereo unspecified) | 35.5 µM [falling, single point] | – |
| O=C1CCN(CCc2ccccc2)CCN1CCSc1ccc(Br)cc1 | 15.8 µM [falling, partial curve, poor fit] | – |
| CCOC(=O)c1c(C)[nH]c(C=O)c1Cc1cccc(Cl)c1 | 18.4 µM [falling, single point] | – |
| COc1ccc(C(=O)N2CCc3ccc(NC(=O)c4ccccn4)cc3C2)cc1F | 35.5 µM [falling, single point] | – |
| Clc1ccc(OCCSc2ncccn2)cc1 | 23.1 µM [rising, single point] | – |
| N#Cc1nc(COc2cccc(Cl)c2)oc1NCc1ccco1 | 35.5 µM [falling, single point] | – |
| O=C(c1ccc(Br)s1)N1CCc2ccccc2C1 | 0.562 µM [rising, partial curve, poor fit] | – |
| Cc1ccc(NC(=O)c2ccc(CNS(=O)(=O)c3cccc(C(F)(F)F)c3)cc2)cc1 | 3.66 µM [rising, single point] | – |
| COc1ccc(OC)c(N/C=C2/CCCCC2=O)c1 | 8.2 µM [falling, partial curve, poor fit] | – |
| C[C@H]1CN=C(Nc2ccccc2)N1CCC1CCCCC1 | 4.47 µM [falling, partial curve, poor fit] | – |
| COC(=O)c1ccc(CSc2nnc(-c3ccc4c(c3)OCO4)n2-c2ccccc2)o1 | 29.1 µM [falling, single point] | – |
| Cc1nc2ccc(C(=O)Nc3cccc([N+](=O)[O-])c3)cc2s1 | 2.51 µM [rising, full curve, poor fit] | – |
| CCCCOc1ccc(N(CC(=O)NCC2CCCO2)C(=O)CCC(=O)Nc2nccs2)cc1 (stereo unspecified) | 11.2 µM [rising, partial curve, poor fit] | – |

| Compound | AC50 [1] | AC50 [2] |
| --- | --- | --- |
| CCOc1ccc(N2C(=O)c3ccccc3NC2(C)CC)cc1 (stereo unspecified) | 9.2 µM [falling, partial curve] | – |
| CC(C(=O)NCCCc1ccccc1)c1ccc([N+](=O)[O-])cc1 (stereo unspecified) | 1.58 µM [falling, partial curve, poor fit] | – |
| CCOC(=O)c1cnn(-c2ccc(C(C)C)cc2)c1NC(=O)C1CCC1 | 3.55 µM [rising, partial curve] | – |
| c1ccc2c(c1)CCN(c1ncnc3c1[nH]c1ccccc13)C2 | 14.6 µM [falling, single point] | – |
| Cc1cc(NC(=S)N(CCN2CCCCC2)Cc2ccco2)ccc1Cl | 25.1 µM [falling, single point] | – |
| O=C(CC(Sc1ccc(Br)cc1)C(=O)O)c1ccc(F)cc1 (stereo unspecified) | 17.8 µM [falling, single point] | – |
| Nc1ccc(O)cc1C(=O)OCC(=O)c1ccc(C2CCCCC2)cc1 | 29.1 µM [rising, single point] | – |
| CCC(C)NC(=O)c1cc(C)no1 (stereo unspecified) | 29.1 µM [falling, single point] | 32.6 µM [rising, partial curve, poor fit] |
| Oc1ccc(/C=N/n2cnn(Cc3ccccc3Cl)c2=S)c(O)c1 | 20.6 µM [falling, single point] | – |
| Cn1cc(CN2CCC(C(=O)N3CCCC3)CC2)c(-c2ccccc2F)n1 | 7.94 µM [rising, partial curve, poor fit] | – |
| CCOCCN1CCN(c2c3c(nc4cc(-c5ccc(F)cc5)nn24)CCC3)CC1 | 17.8 µM [rising, partial curve, poor fit] | – |
| COc1ccc2cnn(-c3ccc(OC(F)(F)F)cc3)c(=O)c2c1OC | 3.55 µM [rising, partial curve, poor fit] | – |
| CCn1c(SCC(=O)Nc2ccc(C(C)=O)cc2)nc2nc3c(cc2c1=O)COC(C)(C)C3 | 0.282 µM [rising, full curve, poor fit] | – |
| Cc1ccc(C(=O)c2cnc3ccccc3c2-c2ccccc2)cc1 | 14.1 µM [falling, partial curve, poor fit] | – |
| Cc1ccc(CC2S/C(=C(/C#N)C(=O)N3CCOCC3)N(c3ccccc3)C2=O)cc1 (stereo unspecified) | 1.3 µM [falling, partial curve, poor fit] | – |
| O=C(CCC1CCCCC1)NCc1ccc(F)cc1 | 0.231 µM [rising, full curve, poor fit] | – |
| C/C(=C\C(=O)c1ccccc1)Nc1ccc(O)cc1 | 1.16 µM [rising, partial curve] | – |
| O=C(NCCC(=O)N1CCCCCCC1)c1ccc(Cl)cc1 | 0.731 µM [rising, full curve] | – |
| NNC(=S)NCc1ccco1 | 15.8 µM [falling, single point] | – |
| C[C@H]1C(=O)N(C)CCN1Cc1cn(C)nc1-c1ccc(Oc2ccccc2)cc1 | 20 µM [rising, partial curve, poor fit] | – |
| CC(C)CCOc1ccc(CO[C@@H]2[C@H]3OC(C)(C)O[C@H]3O[C@@H]2C(O)CO)cc1 (stereo partly specified) | – | 35.5 µM [falling, partial curve, poor fit] |

Of the compounds above, 5 have an NH in an aromatic ring.

| Compound | AC50 [1] | AC50 [2] |
| --- | --- | --- |
| O=C(Nc1cccc2[nH]ncc12)c1ccc(F)cc1 | 14.1 µM [falling, partial curve] | – |
| COc1ccc(N2CCN(c3nc4c(c(=O)[nH]c(=O)n4C)n3Cc3cccc(C)c3)CC2)cc1 | 6.51 µM [rising, single point] | – |
| CCOc1cc(/C=C\c2[nH]c(=O)[nH]c(=O)c2[N+](=O)[O-])ccc1OC(C)CC (stereo unspecified) | 0.366 µM [rising, full curve, poor fit] | – |
| CCOC(=O)c1c(C)[nH]c(C=O)c1Cc1cccc(Cl)c1 | 18.4 µM [falling, single point] | – |
| c1ccc2c(c1)CCN(c1ncnc3c1[nH]c1ccccc13)C2 | 14.6 µM [falling, single point] | – |
